This note sets out measurements from article PMC9478483.

Sequences of proteins named here, by UniProt entry; tags and fusion partners are left off. A change or cut given only in a name is not applied to a line headed by its entry.
UniProt P05305: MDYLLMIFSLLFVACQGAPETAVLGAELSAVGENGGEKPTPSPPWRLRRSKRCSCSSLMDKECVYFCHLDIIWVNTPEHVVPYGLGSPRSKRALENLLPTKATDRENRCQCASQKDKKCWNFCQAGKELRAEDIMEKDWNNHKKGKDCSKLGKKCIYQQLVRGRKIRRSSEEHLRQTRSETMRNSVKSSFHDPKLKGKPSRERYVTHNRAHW

Experiment [1] addresses Endothelin-1 (UniProt P05305). In words: co-IP; mutual co-immunoprecipitation in HEK293T cells, western blot.
The target of experiment [2] is GST-ET-1 (UniProt P05305). In words: pull-down; in vitro pull-down with purified recombinant proteins (GST-ET-1, UFL1 and DDRGK1); both purified.

Results are given in words; binding and its absence hold for the method and conditions named. Binding can be weak; no strength is given. For some assays here: Binding seen in cells or lysates may run through a third protein.

UFL1 (from UniProt O94874-1 1-794): the binding entry in experiment [1] was “binds”. Turning to “UFL1 (purified recombinant) (from UniProt O94874-1 1-794)”, the binding result in experiment [2] is listed as “binds”.
